Results are given in words; binding and its absence hold for the method and conditions named. In cells and extracts the contact can be indirect.
Molecular target: MAP6d1-ΔMn3-myc (mouse) (UniProt Q14BB9)
Assay: co-IP; COS-7 cells co-transfected with a GFP-tagged and a myc-tagged MAP6d1; lysed 15 h after transfection in IP buffer (50 mM Tris, 150 mM NaCl, 0.05% deoxycholate, 1% Triton X-100, 10% glycerol, pH 8.0); IP with anti-myc (Protein G-Sepharose) or anti-GFP (Protein A-Sepharose), 1 h at 4°C, five washes; western blot

Sequences of proteins named here, by UniProt entry; tags and fusion partners are left off. A change or cut given only in a name is not applied to a line headed by its entry.
UniProt Q14BB9: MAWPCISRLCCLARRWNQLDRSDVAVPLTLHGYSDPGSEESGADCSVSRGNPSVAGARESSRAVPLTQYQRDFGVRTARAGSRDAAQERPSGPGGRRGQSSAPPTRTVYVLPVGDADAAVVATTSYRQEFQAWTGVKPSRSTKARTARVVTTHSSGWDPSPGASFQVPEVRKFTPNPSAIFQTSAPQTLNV

- binding: no binding
Substance: MAP6d1-GFP (from UniProt Q14BB9 1-191)

Source: paper PMC4272302
